From article PMC7236181 come the findings set out here.

Chains of the proteins cited; added tags and fusions are not shown.
UniProt Q13315: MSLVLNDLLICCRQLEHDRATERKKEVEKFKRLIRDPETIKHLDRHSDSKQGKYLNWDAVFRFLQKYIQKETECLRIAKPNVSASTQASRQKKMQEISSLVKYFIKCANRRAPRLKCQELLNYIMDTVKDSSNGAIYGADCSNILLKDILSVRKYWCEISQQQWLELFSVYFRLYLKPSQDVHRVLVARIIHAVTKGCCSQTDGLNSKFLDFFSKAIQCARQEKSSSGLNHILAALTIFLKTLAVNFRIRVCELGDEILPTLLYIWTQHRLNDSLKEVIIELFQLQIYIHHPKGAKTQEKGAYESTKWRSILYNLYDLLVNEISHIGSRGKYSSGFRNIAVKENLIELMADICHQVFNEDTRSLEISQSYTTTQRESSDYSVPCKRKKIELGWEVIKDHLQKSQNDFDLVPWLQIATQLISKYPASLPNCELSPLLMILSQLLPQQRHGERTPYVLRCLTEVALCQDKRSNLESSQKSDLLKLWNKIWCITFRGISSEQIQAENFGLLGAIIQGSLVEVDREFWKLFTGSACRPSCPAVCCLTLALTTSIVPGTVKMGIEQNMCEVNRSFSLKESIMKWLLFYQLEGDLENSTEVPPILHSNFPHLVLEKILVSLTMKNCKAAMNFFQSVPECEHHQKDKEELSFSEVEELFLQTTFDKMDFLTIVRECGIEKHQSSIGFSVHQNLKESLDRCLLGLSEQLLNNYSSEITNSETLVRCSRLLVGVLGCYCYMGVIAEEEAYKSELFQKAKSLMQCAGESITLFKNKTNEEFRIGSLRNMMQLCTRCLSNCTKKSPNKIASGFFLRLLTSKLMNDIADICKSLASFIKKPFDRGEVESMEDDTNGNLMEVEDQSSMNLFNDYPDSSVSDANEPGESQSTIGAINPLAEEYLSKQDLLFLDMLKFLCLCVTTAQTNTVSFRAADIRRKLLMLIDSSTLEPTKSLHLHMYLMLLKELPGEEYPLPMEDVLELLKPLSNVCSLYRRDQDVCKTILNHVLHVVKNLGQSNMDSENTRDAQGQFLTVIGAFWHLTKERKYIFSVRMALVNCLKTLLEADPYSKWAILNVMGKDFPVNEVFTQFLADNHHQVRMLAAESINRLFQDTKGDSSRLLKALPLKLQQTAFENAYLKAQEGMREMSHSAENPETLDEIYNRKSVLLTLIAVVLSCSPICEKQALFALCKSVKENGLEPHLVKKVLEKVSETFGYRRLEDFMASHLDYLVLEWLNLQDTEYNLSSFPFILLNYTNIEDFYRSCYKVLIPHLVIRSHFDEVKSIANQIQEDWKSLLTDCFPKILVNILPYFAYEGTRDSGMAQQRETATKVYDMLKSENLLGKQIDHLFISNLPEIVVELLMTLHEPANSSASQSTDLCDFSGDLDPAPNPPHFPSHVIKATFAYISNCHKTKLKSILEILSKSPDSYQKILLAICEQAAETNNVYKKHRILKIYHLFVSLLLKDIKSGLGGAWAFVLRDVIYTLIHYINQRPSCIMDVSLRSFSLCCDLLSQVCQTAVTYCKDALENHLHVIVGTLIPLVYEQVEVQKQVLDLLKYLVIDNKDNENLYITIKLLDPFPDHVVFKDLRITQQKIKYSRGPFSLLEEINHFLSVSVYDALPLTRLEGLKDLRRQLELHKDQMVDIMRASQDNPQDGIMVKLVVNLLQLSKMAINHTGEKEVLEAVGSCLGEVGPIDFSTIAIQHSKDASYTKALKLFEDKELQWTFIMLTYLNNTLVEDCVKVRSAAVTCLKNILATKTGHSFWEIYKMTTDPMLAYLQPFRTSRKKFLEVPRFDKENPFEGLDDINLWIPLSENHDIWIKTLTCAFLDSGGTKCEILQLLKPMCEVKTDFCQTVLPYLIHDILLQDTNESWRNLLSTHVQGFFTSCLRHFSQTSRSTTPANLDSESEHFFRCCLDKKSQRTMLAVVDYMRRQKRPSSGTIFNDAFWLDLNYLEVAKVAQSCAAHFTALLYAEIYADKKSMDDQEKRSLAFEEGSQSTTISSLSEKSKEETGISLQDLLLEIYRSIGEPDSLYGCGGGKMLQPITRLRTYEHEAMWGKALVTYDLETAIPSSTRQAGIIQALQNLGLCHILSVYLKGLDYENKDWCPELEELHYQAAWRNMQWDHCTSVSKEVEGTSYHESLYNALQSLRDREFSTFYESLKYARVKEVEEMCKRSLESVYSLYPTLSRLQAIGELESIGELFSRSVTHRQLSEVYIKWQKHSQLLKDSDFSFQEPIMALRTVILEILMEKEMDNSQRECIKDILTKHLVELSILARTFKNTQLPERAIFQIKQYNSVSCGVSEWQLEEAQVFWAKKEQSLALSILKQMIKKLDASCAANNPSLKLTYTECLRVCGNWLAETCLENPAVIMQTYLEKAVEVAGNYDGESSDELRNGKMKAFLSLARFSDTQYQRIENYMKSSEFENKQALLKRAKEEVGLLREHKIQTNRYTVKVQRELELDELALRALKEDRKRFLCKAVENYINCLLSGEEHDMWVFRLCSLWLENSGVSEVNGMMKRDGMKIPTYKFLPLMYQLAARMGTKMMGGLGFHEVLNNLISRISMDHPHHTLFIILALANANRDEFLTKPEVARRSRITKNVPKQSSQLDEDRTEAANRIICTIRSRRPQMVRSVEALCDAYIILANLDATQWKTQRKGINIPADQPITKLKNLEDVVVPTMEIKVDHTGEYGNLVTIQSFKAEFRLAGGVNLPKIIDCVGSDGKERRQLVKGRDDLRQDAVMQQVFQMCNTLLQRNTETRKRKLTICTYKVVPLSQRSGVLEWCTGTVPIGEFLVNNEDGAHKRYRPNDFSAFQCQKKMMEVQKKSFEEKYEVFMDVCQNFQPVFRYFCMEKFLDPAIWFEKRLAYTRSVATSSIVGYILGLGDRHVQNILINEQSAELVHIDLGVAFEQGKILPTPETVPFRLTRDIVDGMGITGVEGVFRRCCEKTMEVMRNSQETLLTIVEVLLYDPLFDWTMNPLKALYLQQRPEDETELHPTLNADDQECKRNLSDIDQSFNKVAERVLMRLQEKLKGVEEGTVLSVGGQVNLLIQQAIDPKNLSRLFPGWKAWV
UniProt O15534: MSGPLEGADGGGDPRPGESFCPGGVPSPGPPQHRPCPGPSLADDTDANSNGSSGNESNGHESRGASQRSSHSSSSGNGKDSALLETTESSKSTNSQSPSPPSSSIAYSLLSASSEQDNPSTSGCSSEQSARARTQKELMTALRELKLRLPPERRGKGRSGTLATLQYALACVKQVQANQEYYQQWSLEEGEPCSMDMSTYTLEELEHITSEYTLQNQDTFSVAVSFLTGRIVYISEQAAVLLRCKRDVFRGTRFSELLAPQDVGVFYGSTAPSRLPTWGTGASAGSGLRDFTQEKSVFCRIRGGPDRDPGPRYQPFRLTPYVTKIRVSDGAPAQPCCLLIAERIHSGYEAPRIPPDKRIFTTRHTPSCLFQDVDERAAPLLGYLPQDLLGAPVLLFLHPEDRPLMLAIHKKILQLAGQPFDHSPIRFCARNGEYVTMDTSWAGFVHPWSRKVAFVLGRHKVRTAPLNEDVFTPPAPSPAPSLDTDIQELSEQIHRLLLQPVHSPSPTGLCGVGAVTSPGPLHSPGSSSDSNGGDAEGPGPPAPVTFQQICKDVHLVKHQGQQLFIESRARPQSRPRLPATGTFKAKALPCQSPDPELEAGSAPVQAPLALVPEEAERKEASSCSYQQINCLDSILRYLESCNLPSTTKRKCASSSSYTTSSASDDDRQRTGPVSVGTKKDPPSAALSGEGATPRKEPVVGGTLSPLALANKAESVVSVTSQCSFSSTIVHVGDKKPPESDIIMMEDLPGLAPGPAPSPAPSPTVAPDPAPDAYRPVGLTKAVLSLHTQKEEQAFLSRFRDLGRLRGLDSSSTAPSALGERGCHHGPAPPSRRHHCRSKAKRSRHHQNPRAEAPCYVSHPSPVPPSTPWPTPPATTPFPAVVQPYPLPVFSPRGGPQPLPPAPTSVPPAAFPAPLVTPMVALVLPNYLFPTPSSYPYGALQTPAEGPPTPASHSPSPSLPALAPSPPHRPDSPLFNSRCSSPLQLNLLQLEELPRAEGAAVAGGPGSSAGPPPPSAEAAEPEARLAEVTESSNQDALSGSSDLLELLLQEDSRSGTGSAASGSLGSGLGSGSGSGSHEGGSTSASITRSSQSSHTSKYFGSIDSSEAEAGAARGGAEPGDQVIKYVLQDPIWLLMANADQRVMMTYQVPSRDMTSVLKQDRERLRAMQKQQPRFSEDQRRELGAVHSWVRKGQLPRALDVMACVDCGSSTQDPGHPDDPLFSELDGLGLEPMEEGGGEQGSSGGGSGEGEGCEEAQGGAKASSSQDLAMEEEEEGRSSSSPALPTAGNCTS

Results are given in words; binding and its absence hold for the method and conditions named. In cells and extracts the contact can be indirect. Some binding calls cover weakened binding; strength is not graded here.

The experiment concerns the target ATM (human (endogenous in 293 T)) (UniProt Q13315). Kind of experiment: co-IP; lysate of 293 T cells transfected with PER1 or an empty vector; IP with an ATM antibody (sc-377,293) or control IgG and protein A-sepharose beads, overnight at 4 °C; western blotting. In general terms: In western blotting, separated proteins are transferred to a membrane and probed.

As for PER1 (from UniProt O15534 1-1290), the binding entry is on record as “binds”.
